Laboratory results: PubChem BioAssay AID1671195 (Yale University, 2021)

Assay: 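Knockdowns that increase or decrease uptake of fluorescent LDL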 (primary screen)
System: human Huh7 hepatoma cells
Knock-down reagent: siRNA pool against human genes, 18 nM
Timing: about 2 to 2.5 days of knockdown, then 8 h LDL uptake
Treatment: DiI-labelled LDL at 30 µg/ml for 8 h, in lipoprotein-deficient serum medium
Measurement: 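Per-cell DiI-LDL intensity by automated imaging; well means scaled to the plate median and given as a robust z-score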
Direction: robust z-score: higher = more LDL uptake after knockdown
Call rule: 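a gene counts as active if at least two replicate z-scores exceed ±2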
This is one part, drawn at random, of about 22,000 reagents tested. About 1,510 of them (6.9%) were called active. 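Active includes knockdowns raising or lowering LDL uptake; positive z-scores mean more uptake, negative mean less.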 Entries without a mark were called inactive. Reagents against one gene are numbered here.

no.	target gene	reagent	robust z-score, replicate 1	robust z-score, replicate 2	robust z-score, replicate 3
1	ABCB10	1	-0.43	0.474	-0.621
2	ILF2	1	-2.2 (active)	-1.58	-2.75
3	LOC442372 (retired record)	1	-1.33	-1.01	-1.05
4	EVC	1	-0.482	0.0708	-0.0318
5	TMEM255B	1	-0.388	-0.785	-0.305
6	LOC387898 (retired record)	1	-0.776	-0.461	-0.366
7	TFCP2	1	-0.437	-0.033	-0.554
8	RANBP3	1	-0.565	-0.0826	-0.383
9	RIIAD1	1	-1.87	-1.63	-2.08
10	SNTG1	1	0.404	0.3	0.551
11	FGD2	1	-1.02	-0.62	-1.15
12	SCRT1	1	-0.768	-0.789	1.18
13	EMP2	1	-0.544	0.192	-0.138
14	LOC389129 (retired record)	1	-0.284	-0.0985	-0.174
15	ITLN2	1	-1.38	-0.278	-0.773
16	TEX14BP	1	-0.253	-0.27	0.267
17	ANKRD26P1	1	-0.541	-1.45	-1.37
18	KDM2A	1	-1.53	0.562	-1.66
19	CUL4A	1	1.68	2.6	1.44
20	NCEH1	1	-2.2	-1.79	-0.429
21	TNIP3	1	-0.131	-0.683	-0.506
22	IFFO1	1	-0.869	-0.0761	0.922
23	LOC440582 (retired record)	1	1.98	1.18	1.29
24	LOC107985476	1	0.385	0.736	0.129
25	ZFHX3	1	1.82	1.07	1.27
26	ZFHX3	2	0.171	0.138	0.447
27	ALOX15	1	-0.51	-0.615	0.0388
28	PACSIN1	1	-1.07	-0.622	-0.499
29	MFAP4	1	0.874	0.762	0.575
30	PAF1	1	-1.77	-1.71	-1.72
31	MCM7	1	-0.429	0.603	0.586
32	CT83	1	-0.512	-0.624	-0.675
33	MGAT3	1	-2.63	1.35	1.11
34	GDF6	1	-0.0578	-0.0191	0.167
35	SPATA41	1	0.393	0.613	0.386
36	DCDC1	1	3.21	-0.54	-0.848
37	DCDC1	2	0.172	-0.0634	0.159
38	RNASEL	1	-0.599	-0.589	-1.43
39	CCDC144NL	1	2.58 (active)	2.28	2.6
40	AIM2	1	-1.09	-1.14	-2.27
41	FRRS1L	1	0.455	1.11	1.67
42	ABO	1	-0.492	0.187	-0.499
43	JMY	1	-0.0509	-0.903	-0.0104
44	ABCG8	1	-0.177	-0.0786	-0.512
45	BCL9L	1	-0.622	-0.406	-0.648
46	RPS26P17	1	1.09	1.13	0.612
47	LOC442166 (retired record)	1	1.44	0.87	1.7
48	OPRK1	1	0.209	0.453	0.88
49	CASTOR3P	1	0.52	0.153	0.552
50	TRIM23	1	0.88	0.223	0.365
51	ZNF697	1	-0.126	-0.551	-0.323
52	AMER2	1	-0.433	0.61	0.574
53	CCDC174	1	0.601	0.743	0.367
54	TM4SF5	1	0.227	1.55	0.7
55	GAS2L1P2	1	-0.837	-0.262	-1.01
56	UPP1	1	1.42	0.927	1.18
57	RXRG	1	2.12 (active)	2.33	2.26
58	PAQR5	1	-0.639	0.615	-0.322
59	MEX3D	1	-0.977	-1.17	-1.41
60	PELP1	1	2.09	0.638	1.2
61	LPIN1	1	-0.534	1.77	-1.24
62	DPY30	1	-0.862	-0.934	-1.04
63	OR51E2	1	-1.26	-0.587	-0.395
64	RTEL1	1	-0.0701	0.12	-0.0477
65	GNPAT	1	-0.306	0.284	0.418
66	LOC388727 (retired record)	1	0.0535	-0.236	-0.353
67	TBX19	1	0.242	0.574	0.478
68	CASKIN1	1	1.05	0.213	0.638

Called active, among the entries above:
target gene	reagent	robust z-score, replicate 1	robust z-score, replicate 2	robust z-score, replicate 3
ILF2	1	-2.2 (active)	-1.58	-2.75
CCDC144NL	1	2.58 (active)	2.28	2.6
RXRG	1	2.12 (active)	2.33	2.26
